Values are the deposited “Percent Effect”, in %. How 0% and 100% were set is not recorded. Most values in the screen are low, and negative values occur. Compounds were drawn at random from those tested, without regard to their results.

Chains of the proteins cited; added tags and fusions are not shown. Residues count along the entry.
UniProt P9WFT3, whole entry: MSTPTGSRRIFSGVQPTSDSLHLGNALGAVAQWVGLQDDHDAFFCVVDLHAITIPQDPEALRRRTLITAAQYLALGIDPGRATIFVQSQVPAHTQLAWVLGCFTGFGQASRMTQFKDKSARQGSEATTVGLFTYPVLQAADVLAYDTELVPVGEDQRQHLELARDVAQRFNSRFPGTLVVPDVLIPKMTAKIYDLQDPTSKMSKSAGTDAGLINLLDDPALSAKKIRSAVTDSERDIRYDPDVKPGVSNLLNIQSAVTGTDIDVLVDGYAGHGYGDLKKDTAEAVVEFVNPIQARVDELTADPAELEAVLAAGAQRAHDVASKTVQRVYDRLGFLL
UniProt A4I591, 1-473: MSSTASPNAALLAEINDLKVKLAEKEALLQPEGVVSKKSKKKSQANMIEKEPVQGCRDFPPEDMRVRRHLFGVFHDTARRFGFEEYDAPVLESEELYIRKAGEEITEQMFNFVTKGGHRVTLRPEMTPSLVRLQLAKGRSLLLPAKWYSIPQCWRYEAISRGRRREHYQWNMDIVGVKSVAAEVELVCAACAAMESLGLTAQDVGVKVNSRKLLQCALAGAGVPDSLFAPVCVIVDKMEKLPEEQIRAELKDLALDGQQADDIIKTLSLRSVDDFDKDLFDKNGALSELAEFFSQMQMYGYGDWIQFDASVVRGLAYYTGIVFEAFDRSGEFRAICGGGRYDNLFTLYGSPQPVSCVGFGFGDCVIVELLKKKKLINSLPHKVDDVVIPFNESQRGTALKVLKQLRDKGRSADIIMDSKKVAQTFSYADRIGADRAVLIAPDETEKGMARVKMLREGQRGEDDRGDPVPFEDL

A: 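Enzyme assay of tryptophanyl-tRNA synthetase; the read-out is not stated. Target: Tryptophan-tRNA ligase, Mycobacterium tuberculosis (UniProt P9WFT3). Compounds at 10 µM. Higher most likely means stronger inhibition; the record gives no direction and few retests gave an IC50. About 65,000 compounds were tested under these conditions; 0.098% (about 64) showed 50% or more at least once.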
B: 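Histidine-tRNA ligase, Leishmania infantum (UniProt A4I591). Enzyme assay of histidyl-tRNA synthetase; the read-out is not stated. Tested at 30 µM. Higher reads as stronger inhibition (inferred: compounds with an IC50 in retests scored well above the rest). The assay is labelled LdHisRS but filed under L. infantum. Of about 69,000 compounds tested this way, about 410 (0.6%) reached 50% or more in at least one test.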

* CCOC(C(=O)N1CCn2c(nnc2C(C)C)C1)c1ccccc1 (stereo not given) | A: 21.65%; B: -75%
* CC(C)(C)c1ncc2c(n1)CN(C(=O)c1ccc(-n3cnnn3)cc1)C2 | A: -0.8081%; B: 17.74%
* CN(C)CCOCc1nnc2n1CCN(Cc1ccoc1)CC2 | A: 16.4%; B: 11.11%
* Cc1ncccc1CNCC1CCCN1c1cccnn1 (stereo not given) | A: 2.896%; B: 17.09%
* CNC(=O)[C@@H]1CCO[C@@H]2CCN(Cc3ccsc3)C[C@H]21 | A: -1.72%; B: 4%
* CCS(=O)(=O)NCC(=O)Nc1cc(CC(C)(C)C)n[nH]1 | A: -0.3799%; B: 8.108%
* Cc1nc2cc(-c3nccn3C)nn2c(N2CCCC(O)C2)c1C (stereo not given) | A: -0.1319%; B: -5.634%
* COc1ccc(N2CCN(C(=O)c3nc(Cl)sc3C(C)C)CC2)cc1 | A: -2.034%; B: 5%
* O=C1CCCN1CCCNCc1cc(O)c2cccc(Cl)c2n1 | A: -4.104%; B: 13.27%
* CC(=O)N1CCCN(S(=O)(=O)c2cc3ccccc3o2)CC1 | A: -3.505%; B: 14.29%
* Cc1cccc(N2CCN(C(=O)NC(C)c3nncn3C)CC2)c1 (stereo not given) | A: 5.9%; B: 13.79%
* COc1ccc2nnc(CCC(=O)Nc3nc4c(s3)CCCC4)n2n1 | A: 1.23%; B: 16.48%
* OCCNc1nc(Nc2ccccc2)c2nccnc2n1 | A: -6.62%; B: 5.495%
* CCCC(=O)N1CCC(c2ncc3c(n2)CCNC3)CC1 | B: 10%
* O=C(c1cnccn1)N1CCc2onc(CN3CCCC3)c2C1 | A: 5.994%; B: 12.82%
* COc1cc(NC(=O)c2cscn2)ncn1 | A: -9.273%; B: 13.13%
* CN(Cc1cccc(C#N)c1)S(=O)(=O)N1CCOCC1 | A: -0.3298%; B: 9.434%
* Cc1ccc(CC(=O)N2CCC(Nc3cccnn3)CC2)s1 | A: -10.48%; B: 23.21%
* CC(C)(CN1CCC(Cc2ccc(CO)cc2)C1)N1CCOCC1 (stereo not given) | A: -1.098%; B: -1.639%
* CN(C)C(=O)c1nc(CN2C(=O)OC[C@@H]2c2ccccc2)no1 | A: 10.69%; B: 14.47%
* Cc1ccc(C(C)(O)CNC(=O)c2sccc2Br)o1 (stereo not given) | A: -32.3%; B: 17.14%
* Cc1cccc(N2N=C(C(=O)NC(C)CCc3ccco3)CCC2=O)c1 (stereo not given) | A: 2.477%; B: 14.29%
* OCCCN(CCn1cncn1)c1ccccc1 | A: -3.088%; B: 13.27%
* CSc1ccc(CCN2CCN([C@H]3CCCC[C@@H]3O)CC2)cc1 | A: -3.704%; B: 1.639%
* Cc1csc(N2CCN(C(=O)CCC(=O)c3ccc(C)s3)CC2)n1 | A: -0.07825%; B: 50%
* Cc1nc(COCc2cnc3n2CCN(C2CCC2)C3C)cs1 (stereo not given) | A: 2.204%; B: 13.21%
* CC(C)c1noc(OCC(=O)N2CCCCC2C)n1 (stereo not given) | A: 0.983%; B: 9.333%
* Cc1nc(CO[C@@H]2CN(Cc3nccs3)[C@@H]3COC[C@@H]32)cs1 | A: -1.201%; B: 11.29%
* O=C(c1ccno1)N1CCn2cc(CN3CCCCC3)nc2C1 | A: -3.909%; B: 12%
* c1nc2n(n1)CC(NCc1nc(-c3ccsc3)no1)CC2 (stereo not given) | A: -1.263%; B: 6.154%
* Cn1cnc2c1C(COCc1ccccc1)N(Cc1ccccn1)CC2 (stereo not given) | A: -2.323%; B: 30.56%
* CN(CCNC(=O)N1CCN(Cc2ccon2)CC1)C1CCCC1 | A: -1.954%; B: 16.5%
* CN(C)c1nc(N)nc(CN2CCC(c3nc4ccccc4o3)CC2)n1 | A: -6.003%; B: 3.922%
* CCc1cnc(CN(C)C2CCN(CCCNS(C)(=O)=O)C2)o1 (stereo not given) | A: -1.147%; B: 15.93%
* CC(=O)N1CCCC1c1ccc(-c2c(C)noc2C)cn1 (stereo not given) | A: -1.421%; B: 0%
* CC(C)c1ocnc1C(=O)N1CC(=O)Nc2cccnc21 | A: 1.865%; B: 6.122%
* CC(O)C1CCN(Cc2nccn2CC(F)(F)F)CC1 (stereo not given) | A: -1.286%; B: 11.29%
* O=C1NC2(Cc3ccccc31)CN(CC1CCNC1)C2 (stereo not given) | A: 6.482%; B: 9.655%

Some entries from above, unchanged:

For Cc1nc(COCc2cnc3n2CCN(C2CCC2)C3C)cs1 (stereo not given) the result was A: 2.204%; B: 13.21%.
For CN(CCNC(=O)N1CCN(Cc2ccon2)CC1)C1CCCC1 the result was A: -1.954%; B: 16.5%.
For O=C1NC2(Cc3ccccc31)CN(CC1CCNC1)C2 (stereo not given) the result was A: 6.482%; B: 9.655%.
For OCCNc1nc(Nc2ccccc2)c2nccnc2n1 the result was A: -6.62%; B: 5.495%.

The values are deposited in ChEMBL (CHEMBL3988442, “University of Dundee, Small-Polar-MMV Screening Library” (2021)).